The source of these data is paper PMC3037350.

Results are given in words; binding and its absence hold for the method and conditions named. Binding can be weak; no strength is given.

In the assay the target is recombinant P. falciparum 3D7 AMA1 ectodomain (P. falciparum 3D7). Kind of assay: ELISA; competitive ELISA: 1 µg/ml Pf3D7-AMA1 coated, 20 µg/ml Pf3D7-RON2-5, increasing concentrations of R1 or control peptide P8 pre-incubated for 15 min with recombinant protein; both purified.

Consider VFAEFLPLFSKFGSRMHILK [R1 peptide], for which the binding result is listed as “binds”.
